Data as given in PubChem BioAssay AID248 (DTP/NCI, 2004).
The list does not hold the whole screen: it gathers tests that were run many times, whatever their T/C, doses with no T/C, and many T/C values between a quarter and a half above the control. Other doses and runs of a compound stand elsewhere. T/C: endpoint of the treated group in % of that of the vehicle group. Some doses have a count of surviving animals in place of a T/C: the source files T/C as zero there, which appears to mark a toxic dose or a test without result, not a measured value. Some doses without a T/C left all or most animals alive at the check, yet need not have been tolerated: survival well below the control is almost never listed, so the zero probably covers shortened survival too. Counts of survivors are from the toxicity check (mostly the fifth day) where no day follows; animals may have died later. Schedules are NCI's codes, read here as Q, the interval in days (D) or hours (H), X, the number of doses. Some doses were run more than once; their values stand side by side, smallest first. Some schedule codes hold Z or #, which are not explained here. Some structures stand for samples that the source files as different forms (salt, stereo form or complex); doses refer to the form tested. Signs of the kind (2×) say how often a value occurs here. For survival time, this PubChem deposit counts one and a half times the control or more as active, and values a quarter to a half above the control carry no call in these data; other NCI protocols may use other cut-offs.

System: L1210 leukemia ip in BDF1 mice, survival T/C
Test: NCI In Vivo Anticancer Drug Screen. Data for tumor model L1210 Leukemia (intraperitoneal) in B6D2F1 (BDF1) mice
Conditions: T/C endpoint: mean survival time, higher T/C = longer survival
[1] = dose: 400.0 mg/kg/injection, schedule: Q04DX002 (ip), vehicle: Klucel (hydroxypropylcellulose) (HPC)
[2] = dose: 75.0 mg/kg/injection, schedule: Q01DX001 (ip), vehicle: saline
[3] = dose: 150.0 mg/kg/injection, schedule: Q01DX001 (ip), vehicle: saline
[4] = dose: 300.0 mg/kg/injection, schedule: Q01DX001 (ip), vehicle: saline
[5] = dose: 400.0 mg/kg/injection, schedule: Q01DX009 (ip), vehicle: Klucel (hydroxypropylcellulose) (HPC)
[6] = dose: 200.0 mg/kg/injection, schedule: Q01DX009 (ip), vehicle: saline with Tween-80
[7] = dose: 100.0 mg/kg/injection, schedule: Q04DX003 (ip), vehicle: Klucel (hydroxypropylcellulose) (HPC)
[8] = dose: 200.0 mg/kg/injection, schedule: Q04DX003 (ip), vehicle: Klucel (hydroxypropylcellulose) (HPC)
[9] = dose: 400.0 mg/kg/injection, schedule: Q04DX003 (ip), vehicle: Klucel (hydroxypropylcellulose) (HPC)
[10] = dose: 400.0 mg/kg/injection, schedule: Q04DX003 (ip), vehicle: saline with Tween-80
[11] = dose: 200.0 mg/kg/injection, schedule: Q01DX001 (ip), vehicle: saline

CCCC(=O)N1CCCCC1C (stereo not given)
survivor count [1]: 0 of 3

CN(C)c1ccc(/C=N/NC=O)c(Cl)c1
survivor count [2]: 0 of 6
survivor count [3]: 0 of 6
survivor count [4]: 0 of 6

COC(=O)C1=CN=NC1=[N+]=[N-]
survivor count (dose: 40.0 mg/kg/injection, schedule: Q01DX001 (ip), vehicle: saline): 0 of 6
survivor count [2]: 0 of 6
survivor count [3]: 0 of 6
survivor count [4]: 0 of 6

CCOC(=O)NP(=O)(NC1CCCCC1)NC1CCCCC1
survivor count (dose: 400.0 mg/kg/injection, schedule: Q01DX001 (ip), vehicle: alcohol): 1 of 4

Cc1cc(N(C)c2ccccc2)nc(N)n1
survivor count (dose: 50.0 mg/kg/injection, schedule: Q01DX Z (ip), vehicle: methylcellulose (MC)): 0 of 6
survivor count (dose: 100.0 mg/kg/injection, schedule: Q01DX Z (ip), vehicle: methylcellulose (MC)): 0 of 6
survivor count (dose: 200.0 mg/kg/injection, schedule: Q01DX Z (ip), vehicle: methylcellulose (MC)): 0 of 6

Cc1ccc(NC(=O)c2ccccc2)cc1
survivor count [1]: 1 of 3

c1cc2c(c(OCC3=NCCN3)c1)CCC2
survivor count (dose: 50.0 mg/kg/injection, schedule: Q01DX009 (ip), vehicle: Klucel (hydroxypropylcellulose) (HPC)): 3 of 6
survivor count (dose: 100.0 mg/kg/injection, schedule: Q01DX009 (ip), vehicle: Klucel (hydroxypropylcellulose) (HPC)): 0 of 6
survivor count (dose: 200.0 mg/kg/injection, schedule: Q01DX009 (ip), vehicle: Klucel (hydroxypropylcellulose) (HPC)): 0 of 6
survivor count [5]: 0 of 6

CCCNC(=O)Oc1ccccc1C(N)=O
survivor count [5]: 0 of 6

NCC(c1ccccc1)c1ccccc1
survivor count (dose: 75.0 mg/kg/injection, schedule: Q01DX009 (ip), vehicle: saline): 4 of 6
survivor count (dose: 100.0 mg/kg/injection, schedule: Q04DX003 (ip), vehicle: saline): 2 of 6
survivor count (dose: 115.0 mg/kg/injection, schedule: Q01DX009 (ip), vehicle: saline): 0 of 6
survivor count (dose: 170.0 mg/kg/injection, schedule: Q01DX009 (ip), vehicle: saline): 0 of 6
survivor count (dose: 200.0 mg/kg/injection, schedule: Q04DX003 (ip), vehicle: saline): 0 of 6
survivor count (dose: 400.0 mg/kg/injection, schedule: Q04DX003 (ip), vehicle: saline): 0 of 6

Cc1cc(C)c(O)c(C)c1C
T/C [6]: 125 % of control

CC(C)(C)N1CC1C(=O)Sc1ccccc1 (stereo not given)
survivor count [7]: 6 of 6
survivor count [8]: 3 of 6
survivor count [9]: 0 of 6

Cc1cc[n+](C)c2ccccc12
survivor count (dose: 75.0 mg/kg/injection, schedule: Q04DX003 (ip), vehicle: saline): 4 of 6
survivor count [3]: 0 of 6
survivor count (dose: 150.0 mg/kg/injection, schedule: Q04DX003 (ip), vehicle: saline): 1 of 6
survivor count [4]: 0 of 6

Clc1ccc(SCSc2nc3ccccc3s2)cc1
survivor count (dose: 100.0 mg/kg/injection, schedule: Q04DX002 (ip), vehicle: Klucel (hydroxypropylcellulose) (HPC)): 3 of 3
survivor count (dose: 200.0 mg/kg/injection, schedule: Q04DX002 (ip), vehicle: Klucel (hydroxypropylcellulose) (HPC)): 3 of 3
survivor count [1]: 3 of 3

O=C1OCC/C1=C\c1ccccc1
survivor count (dose: 400.0 mg/kg/injection, schedule: Q01DX001 (ip), vehicle: carboxymethylcellulose (CMC)): 1 of 4

O=C(CC(O)(C(F)(F)F)C(F)(F)F)c1ccc(Cl)c([N+](=O)[O-])c1
survivor count (dose: 300.0 mg/kg/injection, schedule: Q01DX009 (ip), vehicle: Klucel (hydroxypropylcellulose) (HPC)): 3 of 6

O=C(O)CS(=O)(=O)Cc1ccccc1
survivor count [10]: 0 of 6

CC(C)OP(=S)(S)OC(C)C.[Cu+2]
survivor count (dose: 12.5 mg/kg/injection, schedule: Q04DX003 (ip), vehicle: DMSO): 2 of 6
survivor count (dose: 25.0 mg/kg/injection, schedule: Q04DX003 (ip), vehicle: DMSO): 1 of 6
survivor count (dose: 50.0 mg/kg/injection, schedule: Q04DX003 (ip), vehicle: DMSO): 0 of 6
survivor count (dose: 100.0 mg/kg/injection, schedule: Q04DX003 (ip), vehicle: DMSO): 0 of 6
survivor count (dose: 200.0 mg/kg/injection, schedule: Q04DX003 (ip), vehicle: DMSO): 0 of 6
survivor count (dose: 400.0 mg/kg/injection, schedule: Q04DX003 (ip), vehicle: DMSO): 0 of 6

ClCCN(CCCl)c1ccc(C[n+]2ccc3ccccc3c2)cc1
survivor count (dose: 64.0 mg/kg/injection, schedule: Q01DX015 (ip), vehicle: carboxymethylcellulose (CMC)): 0 of 6

O=C(C[N+]12CN3CN(CN(C3)C1)C2)c1ccc(Br)cc1
survivor count [5]: 0 of 3

Nc1cc(S(=O)(=O)F)cc(Cl)c1O
survivor count [5]: 0 of 6

NNC12CCC(c3ccccc31)c1ccccc12
survivor count (dose: 400.0 mg/kg/injection, schedule: Q04DX003 (ip), vehicle: saline sonified): 1 of 6

CC(C)OC1=C2CCCCC2=[N+]2CCc3ccccc3C2C1 (stereo not given)
survivor count (dose: 100.0 mg/kg/injection, schedule: Q01DX001 (ip), vehicle: Klucel (hydroxypropylcellulose) (HPC)): 0 of 6
survivor count (dose: 200.0 mg/kg/injection, schedule: Q01DX001 (ip), vehicle: Klucel (hydroxypropylcellulose) (HPC)): 1 of 6
survivor count (dose: 400.0 mg/kg/injection, schedule: Q01DX001 (ip), vehicle: Klucel (hydroxypropylcellulose) (HPC)): 0 of 6

CC1CC1C(N)=O (stereo not given)
T/C (dose: 400.0 mg/kg/injection, schedule: Q04DX002 (ip), vehicle: saline): 127 % of control

COc1cc2cc3c4cc(OC)c(OC)cc4cc[n+]3c(/C=C/c3cccc([N+](=O)[O-])c3)c2cc1OC
T/C (dose: 400.0 mg/kg/injection, schedule: Q04DX002 (ip), vehicle: other): 143 % of control
survivor count (dose: 800.0 mg/kg/injection, schedule: Q04DX002 (ip), vehicle: carboxymethylcellulose (CMC)): 2 of 6

CCCCc1c(Cl)nc(Cl)nc1Cl
survivor count (dose: 100.0 mg/kg/injection, schedule: Q01DX009 (ip), vehicle: saline with Tween-80): 0 of 6 and 1 of 6
survivor count [6]: 0 of 6
survivor count (dose: 400.0 mg/kg/injection, schedule: Q01DX009 (ip), vehicle: saline with Tween-80): 0 of 6

CC1=C2CC3CCC(C)C2(CC1)C3(C)C (stereo not given)
survivor count (dose: 200.0 mg/kg/injection, schedule: Q01DX009 (ip), vehicle: saline): 6 of 6

O=C(N/N=C/c1ccc(Cl)cc1Cl)c1cccc2ccccc12
survivor count [11]: 4 of 4

C/C=C\C(=O)O
survivor count (dose: 400.0 mg/kg/injection, schedule: Q01DX009 (ip), vehicle: saline): 0 of 6

O=[N+]([O-])c1ccc(N2N=NC(c3ccccc3)C2(c2ccccc2)N2CCOCC2)cc1 (stereo not given)
survivor count [2]: 6 of 6
survivor count [4]: 6 of 6

NC(=S)N/N=C\c1ncnc2ccccc12
survivor count (dose: 10.8 mg/kg/injection, schedule: Q03HX032 (ip), vehicle: saline with Tween-80): 4 of 10
T/C (dose: 12.5 mg/kg/injection, schedule: Q01DX009 (ip), vehicle: saline): 132 % of control
T/C (dose: 25.0 mg/kg/injection, schedule: Q01DX009 (ip), vehicle: saline): 130 % of control

CC(C)CCNc1ccc(NCCC(C)C)cc1
survivor count [7]: 2 of 6
survivor count (dose: 115.0 mg/kg/injection, schedule: Q01DX009 (ip), vehicle: alcohol): 2 of 6
survivor count (dose: 170.0 mg/kg/injection, schedule: Q01DX009 (ip), vehicle: alcohol): 0 of 6
survivor count [8]: 0 of 6
survivor count [9]: 0 of 6

C[N+]12CC3C(O)CC1CCC32 (stereo not given)
survivor count (dose: 100.0 mg/kg/injection, schedule: Q01DX001 (ip), vehicle: saline): 1 of 6
survivor count [11]: 0 of 6 and 2 of 6
survivor count (dose: 400.0 mg/kg/injection, schedule: Q01DX001 (ip), vehicle: saline): 0 of 6 (2×)

O=C(O)c1ccc[n+]([O-])c1
survivor count [10]: 2 of 3

[Cl][Ho]([Cl])[Cl]
survivor count [5]: 0 of 3
